Source: PubChem BioAssay AID248 (DTP/NCI, 2004)
The list shows only some results of the screen, not a fair sample: its compounds were picked by chemical class. Not every dose and run of a compound is shown. T/C: endpoint of the treated group in % of that of the vehicle group. Where survival is the endpoint, this PubChem deposit counts one and a half times the control or more as active, and values a quarter to a half above the control carry no call in these data; other NCI protocols may use other cut-offs. Some entries show no survivor count and are marked so; the dose need not have been tolerated. Schedule codes are those of the source, read here as Q, the interval in days (D) or hours (H), X, the number of doses. Some entries hold several experiments; their values stand side by side, smallest first. Brackets with × stand for listed records that agree. Some schedules carry Z or #; the key to these is not given.

Tested on: L1210 leukemia ip in BDF1 mice, survival T/C
Test: NCI In Vivo Anticancer Drug Screen. Data for tumor model L1210 Leukemia (intraperitoneal) in B6D2F1 (BDF1) mice
Details: T/C endpoint: mean survival time, higher T/C = longer survival

SMILES: CN(CCCl)CCCl
- T/C (dose: 0.06 mg/kg/injection, schedule: Q01DX009 (ip), vehicle: water): 103 [survivor count not shown] and 105 % of control [survivor count not shown]
- T/C (dose: 0.08 mg/kg/injection, schedule: Q04DX002 (ip), vehicle: water): 97 [survivor count not shown] and 105 % of control [survivor count not shown]
- T/C (dose: 0.1 mg/kg/injection, schedule: Q01DX001 (ip), vehicle: saline): 125 [survivor count not shown] and 133 % of control [survivor count not shown]
- T/C (dose: 0.12 mg/kg/injection, schedule: Q01DX001 (ip), vehicle: saline): 129 % of control [survivor count not shown]
- T/C (dose: 0.12 mg/kg/injection, schedule: Q01DX009 (ip), vehicle: water): 131 [survivor count not shown] and 152 % of control [survivor count not shown]
- T/C (dose: 0.12 mg/kg/injection, schedule: Q#A X Z (ip), vehicle: saline): 135 % of control [survivor count not shown]
- T/C (dose: 0.13 mg/kg/injection, schedule: Q01DX009 (ip), vehicle: saline): 127 [survivor count not shown] and 129 % of control [survivor count not shown]
- T/C (dose: 0.13 mg/kg/injection, schedule: Q01DX010 (ip), vehicle: saline): 120 [survivor count not shown] and 134 % of control [survivor count not shown]
- T/C (dose: 0.13 mg/kg/injection, schedule: Q01DX015 (ip), vehicle: saline): 113 % of control [survivor count not shown]
- T/C (dose: 0.16 mg/kg/injection, schedule: Q04DX002 (ip), vehicle: water): 109 [survivor count not shown] and 112 % of control [survivor count not shown]
- T/C (dose: 0.19 mg/kg/injection, schedule: Q01DX Z (ip), vehicle: saline): 204 % of control [survivor count not shown]
- T/C (dose: 0.2 mg/kg/injection, schedule: Q01DX001 (ip), vehicle: saline): 122 % of control [survivor count not shown]
- T/C (dose: 0.2 mg/kg/injection, schedule: Q01DX015 (ip), vehicle: saline): 129 % of control [survivor count not shown]
- T/C (dose: 0.21 mg/kg/injection, schedule: Q01DX001 (ip), vehicle: saline): 132 % of control [survivor count not shown]
- T/C (dose: 0.22 mg/kg/injection, schedule: Q01DX001 (ip), vehicle: saline): 130 [survivor count not shown] and 134 % of control [survivor count not shown]
- T/C (dose: 0.23 mg/kg/injection, schedule: Q01DX009 (ip), vehicle: water): 125 [survivor count not shown] and 132 % of control [survivor count not shown]
- T/C (dose: 0.25 mg/kg/injection, schedule: Q01DX001 (ip), vehicle: saline): 139 % of control [survivor count not shown]
- T/C (dose: 0.25 mg/kg/injection, schedule: Q01DX006 (iv), vehicle: saline): 115 % of control [survivor count not shown]
- T/C (dose: 0.25 mg/kg/injection, schedule: Q01DX009 (ip), vehicle: saline): 140 [survivor count not shown] and 151 % of control [survivor count not shown]
- T/C (dose: 0.25 mg/kg/injection, schedule: Q01DX010 (ip), vehicle: saline): 131 [survivor count not shown] and 151 % of control [survivor count not shown]
- T/C (dose: 0.25 mg/kg/injection, schedule: Q01DX Z (im), vehicle: saline): 110 % of control [survivor count not shown]
- T/C (dose: 0.25 mg/kg/injection, schedule: Q01DX Z (ip), vehicle: saline): 157 [survivor count not shown] and 165 % of control [survivor count not shown]
- T/C (dose: 0.25 mg/kg/injection, schedule: Q01DX Z (sc), vehicle: saline): 113 % of control [survivor count not shown]
- T/C (dose: 0.25 mg/kg/injection, schedule: Q#A X Z (ip), vehicle: saline): 175 % of control [survivor count not shown]
- T/C (dose: 0.3 mg/kg/injection, schedule: Q01DX015 (ip), vehicle: saline): 116 % of control [survivor count not shown]
- T/C (dose: 0.32 mg/kg/injection, schedule: Q04DX002 (ip), vehicle: water): 109 [survivor count not shown] and 126 % of control [survivor count not shown]
- T/C (dose: 0.38 mg/kg/injection, schedule: Q01DX Z (ip), vehicle: saline): 333 % of control [survivor count not shown]
- T/C (dose: 0.4 mg/kg/injection, schedule: Q01DX001 (ip), vehicle: saline): 143 % of control [survivor count not shown]
- T/C (dose: 0.43 mg/kg/injection, schedule: Q01DX001 (ip), vehicle: saline): 127 % of control [survivor count not shown]
- T/C (dose: 0.44 mg/kg/injection, schedule: Q01DX001 (ip), vehicle: saline): 112 [survivor count not shown] and 115 % of control [survivor count not shown]
- T/C (dose: 0.45 mg/kg/injection, schedule: Q01DX001 (ip), vehicle: saline): 121 [survivor count not shown] and 134 % of control [survivor count not shown]
- T/C (dose: 0.45 mg/kg/injection, schedule: Q01DX009 (ip), vehicle: water): 131 [survivor count not shown] and 132 % of control [survivor count not shown]
- T/C (dose: 0.5 mg/kg/injection, schedule: Q01DX001 (ip), vehicle: saline): 141 [survivor count not shown] and 142 % of control [survivor count not shown]
- T/C (dose: 0.5 mg/kg/injection, schedule: Q01DX006 (iv), vehicle: saline): 116 % of control [survivor count not shown]
- T/C (dose: 0.5 mg/kg/injection, schedule: Q01DX009 (ip), vehicle: saline): 154 [survivor count not shown] and 188 % of control [survivor count not shown]
- T/C (dose: 0.5 mg/kg/injection, schedule: Q01DX010 (ip), vehicle: saline): 108 [survivor count not shown] and 112 % of control [survivor count not shown]
- T/C (dose: 0.5 mg/kg/injection, schedule: Q01DX Z (im), vehicle: saline): 137 % of control [survivor count not shown]
- T/C (dose: 0.5 mg/kg/injection, schedule: Q01DX Z (ip), vehicle: saline): 154 [survivor count not shown] and 171 % of control [survivor count not shown]
- T/C (dose: 0.5 mg/kg/injection, schedule: Q01DX Z (sc), vehicle: saline): 138 % of control [survivor count not shown]
- T/C (dose: 0.5 mg/kg/injection, schedule: Q04DX003 (ip), vehicle: clinical formulation): 141 % of control [survivor count not shown]
- T/C (dose: 0.5 mg/kg/injection, schedule: Q04DX003 (ip), vehicle: none): 136 % of control [survivor count not shown]
- T/C (dose: 0.5 mg/kg/injection, schedule: Q04DX003 (ip), vehicle: saline): 150 % of control [survivor count not shown]
- T/C (dose: 0.5 mg/kg/injection, schedule: Q04DX003 (ip), vehicle: water): 130 [survivor count not shown], 163 [survivor count not shown], 164 % of control [survivor count not shown]
- T/C (dose: 0.6 mg/kg/injection, schedule: Q04DX002 (ip), vehicle: water): 131 [survivor count not shown] and 135 % of control [survivor count not shown]
- T/C (dose: 0.65 mg/kg/injection, schedule: Q04DX002 (ip), vehicle: water): 124 [survivor count not shown] and 127 % of control [survivor count not shown]
- T/C (dose: 0.75 mg/kg/injection, schedule: Q01DX Z (ip), vehicle: saline): 113 % of control [survivor count not shown]
- T/C (dose: 0.75 mg/kg/injection, schedule: Q03DX Z (ip), vehicle: saline): 152 % of control [survivor count not shown]
- T/C (dose: 0.8 mg/kg/injection, schedule: Q01DX001 (ip), vehicle: saline): 113 % of control [survivor count not shown]
- T/C (dose: 0.87 mg/kg/injection, schedule: Q01DX001 (ip), vehicle: saline): 137 % of control [survivor count not shown]
- T/C (dose: 0.88 mg/kg/injection, schedule: Q01DX001 (ip), vehicle: saline): 109 [survivor count not shown] and 122 % of control [survivor count not shown]
- T/C (dose: 0.9 mg/kg/injection, schedule: Q01DX001 (ip), vehicle: saline): 219 [survivor count not shown] and 234 % of control [survivor count not shown]
- T/C (dose: 1.0 mg/kg/injection, schedule: Q01DX001 (ip), vehicle: saline): 120 % of control [survivor count not shown]
- T/C (dose: 1.0 mg/kg/injection, schedule: Q01DX006 (iv), vehicle: saline): 124 % of control [survivor count not shown]
- T/C (dose: 1.0 mg/kg/injection, schedule: Q01DX009 (ip), vehicle: saline): 88 % of control [survivor count not shown]
- T/C (dose: 1.0 mg/kg/injection, schedule: Q01DX010 (ip), vehicle: saline): 93 % of control [survivor count not shown]
- T/C (dose: 1.0 mg/kg/injection, schedule: Q01DX Z (im), vehicle: saline): 89 % of control [survivor count not shown]
- T/C (dose: 1.0 mg/kg/injection, schedule: Q01DX Z (ip), vehicle: saline): 100 [survivor count not shown] and 122 % of control [survivor count not shown]
- T/C (dose: 1.0 mg/kg/injection, schedule: Q01DX Z (oral), vehicle: saline): 113 % of control [survivor count not shown]
- T/C (dose: 1.0 mg/kg/injection, schedule: Q01DX Z (sc), vehicle: saline): 100 % of control [survivor count not shown]
- T/C (dose: 1.0 mg/kg/injection, schedule: Q04DX003 (ip), vehicle: clinical formulation): 141 % of control [survivor count not shown]
- T/C (dose: 1.0 mg/kg/injection, schedule: Q04DX003 (ip), vehicle: none): 149 % of control [survivor count not shown]
- T/C (dose: 1.0 mg/kg/injection, schedule: Q04DX003 (ip), vehicle: saline): 152 % of control [survivor count not shown]
- T/C (dose: 1.0 mg/kg/injection, schedule: Q04DX003 (ip), vehicle: water): 161 [survivor count not shown], 163 [survivor count not shown], 178 % of control [survivor count not shown]
- T/C (dose: 1.3 mg/kg/injection, schedule: Q01DX001 (ip), vehicle: saline): 155 % of control [survivor count not shown]
- T/C (dose: 1.3 mg/kg/injection, schedule: Q04DX002 (ip), vehicle: water): 124 [survivor count not shown], 129 [survivor count not shown], 130 [survivor count not shown], 145 % of control [survivor count not shown]
- T/C (dose: 1.5 mg/kg/injection, schedule: Q01DX001 (ip), vehicle: saline): 181 % of control [survivor count not shown]
- T/C (dose: 1.5 mg/kg/injection, schedule: Q03DX Z (ip), vehicle: saline): 134 % of control [survivor count not shown]
- T/C (dose: 1.75 mg/kg/injection, schedule: Q01DX001 (ip), vehicle: saline): 115 [survivor count not shown], 120 [survivor count not shown], 135 [survivor count not shown], 138 [survivor count not shown], 148 % of control [survivor count not shown]
- T/C (dose: 1.75 mg/kg/injection, schedule: Q07DX Z (ip), vehicle: saline): 149 % of control [survivor count not shown]
- T/C (dose: 1.8 mg/kg/injection, schedule: Q01DX001 (ip), vehicle: saline): 106 [survivor count not shown] and 155 % of control [survivor count not shown]
- T/C (dose: 1.85 mg/kg/injection, schedule: Q#A X034 (ip), vehicle: saline): 106 % of control [survivor count not shown]
- T/C (dose: 1.9 mg/kg/injection, schedule: Q01DX001 (ip), vehicle: saline): 168 % of control [survivor count not shown]
- T/C (dose: 2.0 mg/kg/injection, schedule: Q01DX001 (ip), vehicle: saline): 155 % of control [survivor count not shown]
- T/C (dose: 2.0 mg/kg/injection, schedule: Q01DX006 (iv), vehicle: saline): 113 % of control [survivor count not shown]
- T/C (dose: 2.0 mg/kg/injection, schedule: Q01DX Z (oral), vehicle: saline): 126 % of control [survivor count not shown]
- T/C (dose: 2.0 mg/kg/injection, schedule: Q04DX003 (ip), vehicle: clinical formulation): 145 % of control [survivor count not shown]
- T/C (dose: 2.0 mg/kg/injection, schedule: Q04DX003 (ip), vehicle: none): 133 [survivor count not shown] and 135 % of control [survivor count not shown]
- T/C (dose: 2.0 mg/kg/injection, schedule: Q04DX003 (ip), vehicle: saline): 129 % of control [survivor count not shown]
- T/C (dose: 2.0 mg/kg/injection, schedule: Q04DX003 (ip), vehicle: water): 133 [survivor count not shown], 137 [survivor count not shown] (2×), 139 % of control [survivor count not shown]
- T/C (dose: 2.5 mg/kg/injection, schedule: Q01DX001 (ip), vehicle: saline): 260 % of control [survivor count not shown]
- T/C (dose: 2.6 mg/kg/injection, schedule: Q04DX002 (ip), vehicle: water): 126 [survivor count not shown], 130 [survivor count not shown], 131 [survivor count not shown], 132 % of control [survivor count not shown]
- T/C (dose: 2.9 mg/kg/injection, schedule: Q01DX001 (ip), vehicle: saline): 168 % of control [survivor count not shown]
- T/C (dose: 3.0 mg/kg/injection, schedule: Q01DX001 (ip), vehicle: saline): 197 % of control [survivor count not shown]
- T/C (dose: 3.0 mg/kg/injection, schedule: Q03DX Z (ip), vehicle: saline): 96 % of control [survivor count not shown]
- T/C (dose: 3.13 mg/kg/injection, schedule: Q01DX001 (ip), vehicle: saline): 141 % of control [survivor count not shown]
- T/C (dose: 3.5 mg/kg/injection, schedule: Q01DX001 (ip), vehicle: saline): 113 [survivor count not shown], 117 [survivor count not shown], 124 [survivor count not shown] (2×), 135 [survivor count not shown], 211 % of control [survivor count not shown]
